The structures given here were assigned with low confidence; some may be wrong.
Assays:
[1] = test system: H3K27 methylation in G401 cell; test: ELISA (H3K27 methylation) assay in G401 cells; format: cell-based, human; conditions: read-out: (c) IC50 ELISA Qualified
[2] = target: wild type PRC2 (wtPRC2) complex (Homo sapiens (Human), UniProt O75530); test: EED LC-MS assay; format: biochemical; conditions: read-out: (b) IC50 EED LC-MS Qualified
[3] = target: EED (1-441)-His protein (Homo sapiens (Human), UniProt O75530); test: EED-H3K27Me3 peptide competition binding assay by AlphaScreen; conditions: read-out: (a) IC50 EED Alphascreen binding Qualified

Chains of the proteins cited; added tags and fusions are not shown.
UniProt O75530, whole entry: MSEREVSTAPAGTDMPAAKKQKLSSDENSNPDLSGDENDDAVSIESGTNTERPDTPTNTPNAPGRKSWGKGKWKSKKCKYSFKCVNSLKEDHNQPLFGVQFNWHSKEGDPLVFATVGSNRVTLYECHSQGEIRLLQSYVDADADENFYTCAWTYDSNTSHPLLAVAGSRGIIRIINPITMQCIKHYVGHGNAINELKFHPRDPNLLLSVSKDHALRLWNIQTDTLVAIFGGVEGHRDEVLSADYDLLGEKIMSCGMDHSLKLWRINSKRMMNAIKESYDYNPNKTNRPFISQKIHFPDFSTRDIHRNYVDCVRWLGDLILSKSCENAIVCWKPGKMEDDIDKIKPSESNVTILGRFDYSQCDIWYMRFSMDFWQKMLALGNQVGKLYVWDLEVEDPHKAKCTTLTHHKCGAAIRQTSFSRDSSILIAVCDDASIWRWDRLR
UniProt Q15022, whole entry partner: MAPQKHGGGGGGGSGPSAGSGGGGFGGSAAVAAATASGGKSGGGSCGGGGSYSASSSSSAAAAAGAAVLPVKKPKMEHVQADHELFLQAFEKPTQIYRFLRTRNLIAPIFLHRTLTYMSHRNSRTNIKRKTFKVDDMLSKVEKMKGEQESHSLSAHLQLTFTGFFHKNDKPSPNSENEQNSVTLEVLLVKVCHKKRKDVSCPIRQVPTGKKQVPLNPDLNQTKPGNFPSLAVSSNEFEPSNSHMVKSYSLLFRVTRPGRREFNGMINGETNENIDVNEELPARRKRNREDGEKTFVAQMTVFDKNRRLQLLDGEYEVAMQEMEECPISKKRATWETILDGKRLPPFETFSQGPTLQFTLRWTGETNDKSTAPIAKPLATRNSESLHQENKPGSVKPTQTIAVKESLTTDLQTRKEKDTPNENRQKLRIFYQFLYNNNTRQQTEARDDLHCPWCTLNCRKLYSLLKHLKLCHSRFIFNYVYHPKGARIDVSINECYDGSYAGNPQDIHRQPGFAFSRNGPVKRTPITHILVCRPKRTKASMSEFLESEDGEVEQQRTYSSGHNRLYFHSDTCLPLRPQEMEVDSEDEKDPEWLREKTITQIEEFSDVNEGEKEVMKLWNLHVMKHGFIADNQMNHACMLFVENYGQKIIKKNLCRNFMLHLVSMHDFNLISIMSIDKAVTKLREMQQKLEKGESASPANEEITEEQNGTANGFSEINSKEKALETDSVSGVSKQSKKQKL
UniProt Q15910, whole entry partner: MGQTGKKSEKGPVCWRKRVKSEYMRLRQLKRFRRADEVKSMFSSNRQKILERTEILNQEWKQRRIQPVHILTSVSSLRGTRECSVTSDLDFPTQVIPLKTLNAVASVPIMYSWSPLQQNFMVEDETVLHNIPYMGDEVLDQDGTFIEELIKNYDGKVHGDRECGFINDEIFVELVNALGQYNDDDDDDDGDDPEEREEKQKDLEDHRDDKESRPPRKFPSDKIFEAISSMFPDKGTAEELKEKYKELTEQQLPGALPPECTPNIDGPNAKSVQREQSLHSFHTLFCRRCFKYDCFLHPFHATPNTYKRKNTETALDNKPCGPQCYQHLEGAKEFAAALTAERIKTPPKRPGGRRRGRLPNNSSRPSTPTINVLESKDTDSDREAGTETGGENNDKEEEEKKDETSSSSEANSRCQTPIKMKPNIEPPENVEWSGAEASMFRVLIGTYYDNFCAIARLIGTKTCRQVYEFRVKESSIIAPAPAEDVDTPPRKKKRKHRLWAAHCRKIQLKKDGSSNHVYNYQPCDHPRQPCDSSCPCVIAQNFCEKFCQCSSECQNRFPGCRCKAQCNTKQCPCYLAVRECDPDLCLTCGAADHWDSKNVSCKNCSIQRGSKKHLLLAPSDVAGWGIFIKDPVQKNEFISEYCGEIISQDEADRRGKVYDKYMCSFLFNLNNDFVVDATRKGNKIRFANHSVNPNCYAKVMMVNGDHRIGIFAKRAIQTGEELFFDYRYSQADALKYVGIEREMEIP

For Fc1ccc2c(c1CNc1ncc(-c3cccnc3C(F)(F)F)c3nncn13)CCO2, the IC50 [1] was 26.6 nM, the IC50 [2] was 31 nM and the IC50 [3] was 11.1 nM.

From patent publication US9580437B2, “Triazolopyrimidine compounds and uses thereof” (Novartis AG, priority 2014, dated 2017)
